# Reference: PubChem BioAssay AID1487 (National Center for Advancing Translational Sciences (NCATS), 2009)
# “And” between values parts separate entries of the source, which are not always exact repeats. Identical values can stand only once. The list shows a part of the results. The main result of the screen is listed elsewhere. These columns were measured beside it and carry no call. The list favours compounds with an active or inconclusive main result. Words in brackets tell the shape of the fitted curve; partial curves, single points and poor fits give uncertain potencies.
# Assay: qHTS Assay for Modulators of Lamin A Splicing
# Conditions: HeLa LMNA splicing GFP/RFP minigene ratio, 48 h
# Outline: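 Read-out is the ratio of GFP to DsRed2 object intensity, acquired by 488 nm laser-scanning cytometry on HeLa lamin A-EGFP minigene reporter cells. Compound incubation 48 hrs at 37 °C in Opti-MEM with 2% FBS; DMSO 0.5% final.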
# [1] = measured here: RFP viability control channel
# [2] = measured here: GFP splicing reporter channel
Structure (SMILES),AC50 [1],AC50 [2]
CCOC(=O)c1c(C)c(C(=O)Nc2ccc3c(c2)OCCO3)c(C)n1C,"35.5 µM [rising, single point]",
COc1ccc(CCNC(=S)NCc2ccc(Cl)c(Cl)c2)cc1OC,"22.4 µM [rising, partial curve, poor fit]","11.2 µM [rising, partial curve, poor fit]"
O=C(/C=C/c1cccs1)N1CCN(c2ccccc2)CC1,"0.398 µM [falling, full curve, poor fit]","2.82 µM [falling, partial curve, poor fit]"
CCN(CC)S(=O)(=O)c1ccc(N2CCOCC2)c(NC(=O)Cc2cccc3ccccc23)c1,"10 µM [rising, partial curve, poor fit]",
COc1cccc(NC(=O)Cn2c(=O)cc(C)c3c(C)nn(-c4cccc(F)c4)c32)c1,"31.6 µM [falling, partial curve, poor fit]","0.0398 µM [falling, full curve, poor fit]"
CCN1CCN(C(c2ccc(OC)cc2)c2c(O)cc(C)n(Cc3ccco3)c2=O)CC1 (configuration not stated),"31.6 µM [rising, partial curve]","3.55 µM [rising, partial curve, poor fit]"
CCC(=O)Nc1cccc2ccccc12,,"35.5 µM [falling, single point]"
COCCN(C(=O)C(C)C)c1nnc(-c2ccc(C(C)(C)C)cc2)s1,,"0.0316 µM [rising, full curve]"
Cc1ccc(-n2ncc(C(=O)NCCc3ccccc3)c2C2CCN(C(=O)OC(C)(C)C)CC2)c(C)c1,"17.8 µM [rising, single point]",
c1ccc(-c2ncc(-c3ccn[nH]3)s2)cc1,"0.0178 µM [falling, full curve]","0.0158 µM [falling, full curve, poor fit]"
CCCCS(=O)(=O)N1C2=NC(C(=O)OC)=C(C(=O)OC)[C@@H]3Nc4ccccc4[C@]23C[C@H]1C(=O)OC,"0.0316 µM [falling, full curve, poor fit]",
c1ccc(-n2cc(CN3CCCC(CN4CCCC4)C3)c(-c3ccc4c(c3)OCO4)n2)cc1 (configuration not stated),"0.00794 µM [falling, full curve, poor fit]",
CCOC(C)OCC,"0.891 µM [falling, single point]",
CCCCCCc1cc2cc(C(=O)NCc3ccccc3)c(=N)oc2cc1O,"10 µM [rising, partial curve]","10 µM [rising, partial curve, poor fit]"
COc1ccc([N+](=O)[O-])cc1C1NN=C(c2ccccc2O)S1 (configuration not stated),"28.2 µM [falling, single point]",
COc1ccc(-c2nn(-c3ccccc3)cc2CNC(=O)c2cccc([N+](=O)[O-])c2)cc1,"0.355 µM [rising, partial curve]","1.12 µM [rising, single point]"
C/C(CC(=O)Nc1ccc(Cl)cc1Cl)=N\NC(N)=S,"6.31 µM [falling, single point]","12.6 µM [falling, single point]"
C#CCn1c(=O)c2c(ncn2C)n(C)c1=O,,"5.62 µM [falling, partial curve, poor fit]"
Cc1ccc(N2C(=O)CC(Sc3nc4ccccc4o3)C2=O)cc1Cl (configuration not stated),"35.5 µM [falling, single point]","35.5 µM [falling, single point]"
Cc1ccccc1NC(=O)CSc1[nH]c(=O)cc(C)c1C#N,"15.8 µM [rising, single point]",
COc1ccc(C2CC(c3ccccc3)=NN2S(=O)(=O)c2ccccc2)c(OC)c1 (configuration not stated),"12.6 µM [rising, partial curve, poor fit]",
O=C1CCCC(O)=C1C=NCc1ccccc1,"10 µM [rising, single point]",
N#Cc1ccccc1NC(=O)c1ccc2c(Cl)c3c(nc2c1)CCCC3,"2 µM [rising, partial curve]",
Cc1ccccc1Nc1sc(C(=O)c2ccccc2)c(N)c1C(=O)NCc1ccc(Cl)cc1,"25.1 µM [falling, single point]","22.4 µM [falling, single point]"
C=CCn1c(-c2csc3c2CCC(C)C3)n[nH]c1=S (configuration not stated),"22.4 µM [rising, single point]","14.1 µM [rising, partial curve, poor fit]"
O=C1C(c2cc(=O)c3ccccc3[nH]2)=C(O)c2ccccc21,"35.5 µM [rising, single point]","14.1 µM [rising, partial curve, poor fit]"
O=C(O)C(O)C(O)c1nc2ccccc2[nH]1 (configuration not stated),,"35.5 µM [falling, partial curve, poor fit]"

Structure (SMILES),AC50 [1],AC50 [2]
COC(=O)c1ccccc1NC(=O)c1cc2ncc(Br)cn2n1,"0.0251 µM [rising, full curve, poor fit]",
CC(=O)c1cccc(NC(=O)c2ccco2)c1,"2.51 µM [falling, partial curve, poor fit]",
CSc1cnn(Cc2ccccc2)c(=O)c1SCc1ccccc1,"17.8 µM [rising, single point]","31.6 µM [rising, single point]"
O=C(NCCc1ccccc1)C1(c2cccs2)CCOCC1,,"0.002 µM [falling, full curve, poor fit]"
Cc1cc(Cl)ccc1OCc1nnc2n1CCCCC2,,"0.0794 µM [falling, full curve, poor fit]"
Cc1ccc(NC(=O)CNS(=O)(=O)c2cccs2)cc1F,"15.8 µM [rising, partial curve]","11.2 µM [rising, single point]"
COc1cccc(C(=O)N2c3nc(-c4ccco4)nn3C3(CCCCC3)[C@@H]3CCCC[C@@H]32)c1,,"28.2 µM [rising, single point]"
COC(=O)CNc1cccc(C(F)(F)F)c1,"0.282 µM [falling, full curve, poor fit]",
Cc1ccc(C(O)(c2ccccc2)c2ccccc2C(C)N(C)C)c(C)c1 (configuration not stated),"22.4 µM [falling, partial curve]","22.4 µM [falling, single point]"
Cc1ccccc1N1CCN(CCCOc2ccc3c(C)cc(=O)oc3c2)CC1,"35.5 µM [rising, single point]",
COCCN1C(=O)N[C@H](c2cccc(C(F)(F)F)c2)C(C(=O)OC)=C1C,"11.2 µM [rising, partial curve, poor fit]","10 µM [rising, partial curve, poor fit]"
CCCN1C(=O)N(C)C(N(O)C(=O)NC)C1(C)C (configuration not stated),,"31.6 µM [rising, partial curve, poor fit]"
CCCn1nc(C(=O)Nc2ccc3nc(C)sc3c2)c2ccccc2c1=O,"31.6 µM [rising, single point]",
CCC(C)NC(=O)C1CCCN(C(=O)Nc2ccc(F)cc2)C1 (configuration not stated),"3.55 µM [rising, partial curve]","2.82 µM [rising, partial curve]"
Cc1nc(N2CCOCC2)c2c(C(=O)NCCc3ccccc3)c(C)oc2n1,"2.51 µM [falling, partial curve, poor fit]","4.47 µM [falling, partial curve, poor fit]"
N#C/C(=C(/O)c1ccco1)c1nc2ccccc2s1,"35.5 µM [falling, single point]","11.2 µM [falling, single point]"
N#C/C(=C\c1ccc(O)c(O)c1)C(=O)NCc1ccccc1,"15.8 µM [falling, single point]","0.00112 µM [falling, full curve, poor fit]"
O=C(CSc1nnc(Cc2ccccc2)o1)N1CCOCC1,"0.501 µM [falling, full curve, poor fit]","0.501 µM [falling, full curve, poor fit]"
O=C(Nc1nnc(-c2ccco2)o1)c1ccc2ccccc2c1,"22.4 µM [rising, partial curve]","17.8 µM [rising, partial curve]"
NC(=O)c1oc2ccccc2c1NC(=O)C1COc2ccccc2O1 (configuration not stated),"0.0224 µM [rising, full curve, poor fit]",
C#C[C@]1(O)CC[C@H]2[C@@H]3CCC4=CC(=O)CC[C@@H]4[C@H]3CC[C@@]21CC,"2.82 µM [rising, full curve]","11.2 µM [rising, partial curve, poor fit] and 2.82 µM [rising, full curve]"
CSc1ccccc1C(=O)N1CCN(c2cccc(Cl)c2)CC1,"0.355 µM [rising, full curve]",
COc1ccc(-n2c(=O)c(-c3cn(C)c4ccccc34)nc3cnc(N4CCNCC4)nc32)cc1,"17.8 µM [falling, partial curve]","20 µM [falling, partial curve]"
CC(/C=N/n1cnnc1)=C\c1ccccc1,"35.5 µM [falling, single point]",
CCCN[C@@H](C)C(=O)Nc1ccccc1C,,"0.0251 µM [falling, partial curve, poor fit]"
O=C(CCC(=O)N1CC2CCCN2c2ccccc21)NCc1cccc(Cl)c1 (configuration not stated),,"0.0282 µM [falling, full curve, poor fit]"
